One compound from ChEMBL document CHEMBL3414553, “Novel imidazo[2,1-b]-1,3,4-thiadiazoles as promising antifungal agents against clinical isolate of Cryptococcus neoformans” (2015) can be followed below.

The test system of this test is Mycobacterium tuberculosis. Briefly: Antimicrobial activity against Mycobacterium tuberculosis H37Rv after 24 hrs by two-fold broth microdilution method. Type of test: functional. For orientation: Dilution methods test growth across graded concentrations, often in twofold steps.

Values after ≈ are worked out from the molar mass of the structure shown.

`CO[C@H]1/C=C/O[C@@]2(C)Oc3c(C)c(O)c4c(O)c(c(/C=N/N5CCN(C)CC5)c(O)c4c3C2=O)NC(=O)/C(C)=C\C=C\[C@H](C)[C@H](O)[C@@H](C)[C@@H](O)[C@@H](C)[C@H](OC(C)=O)[C@@H]1C` [RIFAMPIN]: the minimal inhibitory concentration (MIC) (usually the smallest concentration in the dilution series that meets the test's criterion for growth inhibition) came out at 6.7 µM (≈ 5.51 µg/mL).
